Results published in paper PMC6447562, “Structures of the wild-type MexAB–OprM tripartite pump reveal its complex formation and drug efflux mechanism” (Nature Communications, 2019).
These are yes or no findings as the source states them, for the method shown. For some of these results: Binding calls can cover weak binding; strength is not graded here.

Tests used:
Assay in all cases: SEC; complex-formation experiment: MexA, MexB and OprM (wild type, or one of them mutated) mixed at 3:1:1 in buffer C, dialysed against buffer D (20 mM Na-citrate, 300 mM KCl, 0.02% CYMAL-7) at 4 °C, Superdex200 16/60, 0.5 mL/min; the read-out is the formation of the tripartite complex; both purified
[1] = molecular target: T1, OprM, full length (Pseudomonas aeruginosa) (UniProt Q51487)
T1 sequence: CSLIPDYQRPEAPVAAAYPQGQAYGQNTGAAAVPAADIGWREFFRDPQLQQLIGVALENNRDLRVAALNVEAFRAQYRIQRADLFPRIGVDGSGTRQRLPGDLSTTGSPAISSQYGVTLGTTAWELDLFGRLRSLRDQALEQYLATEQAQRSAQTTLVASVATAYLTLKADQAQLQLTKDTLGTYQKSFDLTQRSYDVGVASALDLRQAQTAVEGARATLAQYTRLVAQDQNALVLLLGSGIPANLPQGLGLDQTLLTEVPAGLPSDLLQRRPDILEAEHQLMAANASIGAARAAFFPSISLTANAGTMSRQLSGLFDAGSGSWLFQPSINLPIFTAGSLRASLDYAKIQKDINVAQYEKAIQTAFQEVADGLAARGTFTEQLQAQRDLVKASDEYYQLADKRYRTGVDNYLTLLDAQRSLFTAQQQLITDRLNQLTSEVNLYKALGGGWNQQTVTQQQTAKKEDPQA

[2] = molecular target: OprM G199A (Pseudomonas aeruginosa) (UniProt Q51487)
[3] = molecular target: OprM G407A (Pseudomonas aeruginosa) (UniProt Q51487)

| Substance | binding [1] | binding [2] | binding [3] |
| --- | --- | --- | --- |
| MexA Q104A (from UniProt P52477) | binds | – | – |
| MexA (a.a. 2-360) (from UniProt P52477 25-383) | – | no binding | no binding |
| MexA D103A (from UniProt P52477) | binds | – | – |
